Laboratory results from PubChem BioAssay AID1347423 (Functional Genomics Laboratory (NCATS/FGL), 2020).
Out of some 52,000 sequences screened, about 210 (0.4%) were called active.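 How the source made its calls: active means gene whose silencing raises cell survival under the drug, median off-target-corrected z-score across its silencing RNAs 2 or more; inactive means the rest.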 The list shows a part of the results.

Test: Resistance to Poly (ADP-Ribose) Polymerase inhibitor: Gene Identification via Genome-wide siRNA Screen
Settings: mouse BRCA2 R2336H ES cells, olaparib, CellTiter-Glo viability; hits give high values
Procedure, shortened: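 Genome-wide siRNA screen (3 siRNAs/gene, 20 nM) in mouse ES cells carrying hypomorphic BRCA2 R2336H; olaparib 500 nM added 48 h post-transfection, CellTiter-Glo viability 72 h later. Normalized to plate-median negative control; MAD z-scores, gene median, seed-adjusted.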
In the case of GGACUUGCUAAGAGACCAATT against Cntn2, the z-score was inactive: 0.885. With GGAAGAAGCCUUUUGAGUGTT against Peg3 the z-score was inactive: 0.57. In the case of CCAGAGAAAUAUCGACAAGTT against Rasgrf1, the z-score was inactive: 1.33. In the case of GGCACCUGAGGGAACUAAGTT against Atp1a2, the z-score was inactive: -0.322. For GCGUAUACCAUGCAGAUAUTT against Oprs1, the z-score was inactive: -1.42. With GGUGAUUUCUAUCGAUUUUTT against Dhrs9 the z-score was inactive: 1.02. In the case of CCUUGACAGGACUAUAUUUTT against Pter, the z-score was inactive: -0.773. With GGCUGAACAGGCAUGAUCATT against Rpap1 the z-score was inactive: -1.77. With “GAAAUUCUUCCAGUGGAAGTT against 2310006J04Rik” the z-score was inactive: 1.91. For GGAGCAGAAUGGAGUGCAGTT against Slc6a3, the z-score was inactive: 0.611. In the case of GGAGGUUUCCUUAGGCAAATT against Drd5, the z-score was inactive: 2.11. With GGAGCACUUGUGGAUCAAUTT against Efhd1 the z-score was inactive: 2.04. For GGGUUAGGAUACCUCGACUTT against Arnt2, the z-score was inactive: -0.0242. In the case of GCCAAUAAUCCACAGGCAATT against Ryk, the z-score was inactive: -1.24. For GGGCUCGUUAAUCUUUUACTT against Nola3, the z-score was inactive: 0.375. For GGAGGUGUCGGGAUAUCAATT against Ptprm, the z-score was inactive: 0.421. For GGCUCCUCAAAGGUCAAGUTT against Mybpc3, the z-score was inactive: 1.08. With CCACAUGAUCCUAACUUUGTT against Pqbp1 the z-score was inactive: 0.119. In the case of “GCUCAAUCAAAAAGAUCCUTT against 2610039E05Rik”, the z-score was inactive: -0.522. For GGGAUCAAAUUACACCUGUTT against Phox2a, the z-score was inactive: 1.06. For GCCGAUCUAAGAAAAACAATT against Tro, the z-score was inactive: -0.259. For “GCCCUGAUGCAAGCUUGUGTT against C030038J10Rik”, the z-score was inactive: -0.681. For GCUAUUGAGUUAUCGUUGCTT against Stam2, the z-score was inactive: 0.98. For GGAGGUGCAUUAUAAGAAUTT against Fhl1, the z-score was inactive: 0.0909. With CGAAGACGGUGACUACUAUTT against Bicd2 the z-score was inactive: -1.41. With GGCUAUGAAUAAACUUUUCTT against Olfr1016 the z-score was inactive: 1.23. In the case of GGUGUCCAUGCUAGCUGUATT against Vmd2l1, the z-score was inactive: -2.12. With CUACUUCACUUGCAUAACUTT against Dnajc2 the z-score was inactive: -0.149. For GAAAGUGUUCAAUAUACUGTT against Klra10, the z-score was inactive: -0.127. In the case of GGGAAUUUCCUGAAAUCCUTT against BC004636, the z-score was inactive: 0.94. For “GCUCUCCUUGAUCGAGAGATT against 6330409N04Rik”, the z-score was inactive: -0.659. With “GGUAGAUGAUGAAAAACAATT against 1700013E18Rik” the z-score was inactive: -0.106. For GCCCGGAAUCUGUCUAAACTT against Btg2, the z-score was inactive: -1.43. In the case of “GGCAUGAAAGCACAAAUGGTT against 0610037L13Rik”, the z-score was inactive: -0.00427. For GGUGGUCUAUUUCACCACGTT against Slc6a20, the z-score was inactive: 0.293. With GCAUGAGGAUUGCACUAGGTT against Shbg the z-score was inactive: 1.85. For GGAUGUCAAGGACACAGUATT against Olfr73, the z-score was inactive: -0.894. With “GGCCUACAUUUUAAUUCAGTT against 4632425D07Rik” the z-score was inactive: 0.864. With “GGACUGAAGAACUUGAAAGTT against 5730521E12Rik” the z-score was inactive: 0.245. With GGAGCUGAGAACUAUUAGATT against Abr the z-score was inactive: 0.544. In the case of GCCUGAUCGAUACGUGAUCTT against Gm964, the z-score was inactive: 1.16. With GGAGAAGGAACAAGAUAAATT against Sfrs12 the z-score was inactive: -2.27. With “GGACCAGAUUGUGAUUGAUTT against B230118H07Rik” the z-score was inactive: 1.5. In the case of GGAAUUGGAUGUGAGCAACTT against Slitl2, the z-score was inactive: 1.3. In the case of GGAUAUUGUCUUUGUAGAATT against Kap, the z-score was inactive: 0.37. In the case of GCAUGUGACCUCGUCUUGCTT against Apbb2, the z-score was inactive: -0.741. With GGAGAUUCAGUUCUUCAAUTT against Ndst2 the z-score was inactive: -0.274. In the case of CGUUCAACAACAGAGAAAATT against Scnn1g, the z-score was inactive: -0.0181. With “GGCUAUGCUGAUCUGAAGATT against 6330407D12Rik” the z-score was inactive: -0.405. In the case of “CCUUGGUUUGCACACUCAGTT against 9130211I03Rik”, the z-score was inactive: -2.54. For CCACAGCCAAAUGCACAAGTT against Gm1631, the z-score was inactive: -0.237. With GGCAUGUGAAAUGUAUACCTT against Napb the z-score was inactive: 0.686. For GGCUCAUAAACGACAAAGGTT against Cxcl11, the z-score was inactive: 0.26. In the case of GGUCAAAUCUCAGAUGAAGTT against Kcnab1, the z-score was inactive: 0.455. In the case of GGAGUUUGAAGACUUUUUGTT against Pstpip2, the z-score was inactive: -0.32. In the case of CCAAGCAACACCACUCAUCTT against Centb2, the z-score was inactive: -0.144. For GGACUUGUUAUGGCCAUGCTT against Olfr1389, the z-score was inactive: 1.11. With GGAGGAAGACAUUGUGUGUTT against Tnfrsf11b the z-score was inactive: -1.3. With GGAGGAAUCUCCAGAAGGUTT against Centg2 the z-score was inactive: -0.482. For GGAAAAACCAAGGUAGAGGTT against Prkcabp, the z-score was inactive: 0.734. With “GGGUAAUAGGCACAGACCATT against 2410146L05Rik” the z-score was inactive: -1.3. For “CGUGGUUGAACUUUGUCCGTT against 1110035L05Rik”, the z-score was inactive: 0.32. With “GCUACAAGCUUUUUCAAUUTT against 6530402A20” the z-score was inactive: 1.23. For CCUACCCUAACCAUUACACTT against Enpp5, the z-score was inactive: 0.0656. With “GCGAUACUCCUAAAACAUATT against D330012D11Rik” the z-score was inactive: -0.211. For GGAAUUUGGAGCCGACUGCTT against Mdk, the z-score was inactive: 0.519. For GGUUUAUAUCCGUACACCUTT against Sp2, the z-score was inactive: -0.544. For GGACUUUGAUAUCAAAGAGTT against Serpina10, the z-score was inactive: -0.146. With GGAAACACAAGUUCUAGGUTT against Gpx3 the z-score was inactive: 0.42. For “GGAAGUGUCUGCCAGAGAUTT against 2210402C18Rik”, the z-score was inactive: 0.453. With GGGAAAUGUGUGUUAUCUGTT against Rnf126 the z-score was inactive: 1.17. For “CCUACAGAGGUGCCAUUGUTT against 1200013P24Rik”, the z-score was inactive: -3.28. In the case of CCUCUUAAAACUAAAUCUGTT against Skiip, the z-score was inactive: 0.39. For GGCACAAGACAGUUUGGCATT against Rnf127, the z-score was inactive: -1.07. For “CCAUUUUGAAGCAUAGUACTT against 5730469D23Rik”, the z-score was inactive: 0.118. For GGCUCUAGGAUUCAAAUAUTT against Grid1, the z-score was inactive: -1.23. In the case of “GGCAACUAACAGGAAAAAGTT against 4430402I18Rik”, the z-score was inactive: 0.179. With GGACAUGAUCAAUGAAGUATT against Calm2 the z-score was inactive: -0.334. With GCCCUAAAUCCUUUUAUUATT against Trpc7 the z-score was inactive: 1.18. With GGCCAUUUUAAAUGGGUCATT against Stx16 the z-score was inactive: 1.41. For GGUGCUUUGUAAACUGUCUTT against Slc26a11, the z-score was inactive: -2.11. In the case of GGUGCUAAGCUAGACAUUCTT against Mib1, the z-score was inactive: -0.815. For GGAUGCAGUUCAUGACAAUTT against Ythdf1, the z-score was inactive: 2.35. For GCUGUUUCCUGAACAAUUCTT against Tram1, the z-score was inactive: -1.1. For GACCUACCAGAACAUCACUTT against BC012278, the z-score was inactive: 0.0962. For GGCAGACAUUGCAUUUCUCTT against Coch, the z-score was inactive: -0.6. With GGAGUUAGAAACUCAUUUUTT against Ppargc1b the z-score was inactive: 0.729. For CCAAGCAUUAUGAGAUGCUTT against Sec23b, the z-score was inactive: 0.988. With CCAUCUACCAUAAACUGUATT against Spata6 the z-score was inactive: 1.76. In the case of GCCAUGCAUCUGGAUUUACTT against Nat1, the z-score was inactive: -0.0728. With GCUGUAUUGAAGGUCCCUUTT against Olfr744 the z-score was inactive: -2.34. With GGUAGCUGAAGAUGGAGAGTT against Abcc10 the z-score was inactive: -0.722. With “GGACAUUUUUGGGAAAGAUTT against 2310042P20Rik” the z-score was inactive: -1.4. With “GGAGUCCACUAUGAGUACGTT against B230114P05Rik” the z-score was inactive: 0.752. In the case of “CGUGGAAUCCAGACACUUGTT against 2210006M16Rik”, the z-score was inactive: -1.29. For GCUUCUAUUGCCAACAUUGTT against Tcp1, the z-score was inactive: -3.3. In the case of CCCGGGUUGGGUGUACAUUTT against Sds, the z-score was inactive: -0.65. For CCAGUUGACAGGUUUGAUCTT against Habp4, the z-score was inactive: -0.167. For GGUCUUCCUGUCUGAAAUATT against Dock7, the z-score was inactive: -2.02. In the case of GGAGUUCUUUUAUGAUAUCTT against Rph3a, the z-score was inactive: 0.266. In the case of “GGAAGGAUUGCCUUUAGGATT against C430048L16Rik”, the z-score was inactive: 0.111. For GCUUUGUCAAUAAGCCCACTT against Shc1, the z-score was inactive: 0.367. With GGAGAUUCGAAGCCUUACUTT against Irak4 the z-score was inactive: -0.172. With GGACAUCAAGUUCUUGCCATT against Hspa5 the z-score was inactive: 2.27.
